Results are given in words; binding and its absence hold for the method and conditions named. For some of these results: Binding seen in cells or lysates may run through a third protein. Some binding calls cover weakened binding; strength is not graded here.
Tests used:
[1] = target: T1, recombinant PHGDH protein (UniProt O43175); assay: pull-down; 2 ug recombinant PHGDH held by 2 ug anti-PHGDH antibody and protein G-Sepharose; recombinant eIF4A1, eIF4E or eIF4G1 added one by one; 20 mM Tris pH 7.4, 150 mM sodium chloride, 4 °C; western blot; both purified
T1 sequence: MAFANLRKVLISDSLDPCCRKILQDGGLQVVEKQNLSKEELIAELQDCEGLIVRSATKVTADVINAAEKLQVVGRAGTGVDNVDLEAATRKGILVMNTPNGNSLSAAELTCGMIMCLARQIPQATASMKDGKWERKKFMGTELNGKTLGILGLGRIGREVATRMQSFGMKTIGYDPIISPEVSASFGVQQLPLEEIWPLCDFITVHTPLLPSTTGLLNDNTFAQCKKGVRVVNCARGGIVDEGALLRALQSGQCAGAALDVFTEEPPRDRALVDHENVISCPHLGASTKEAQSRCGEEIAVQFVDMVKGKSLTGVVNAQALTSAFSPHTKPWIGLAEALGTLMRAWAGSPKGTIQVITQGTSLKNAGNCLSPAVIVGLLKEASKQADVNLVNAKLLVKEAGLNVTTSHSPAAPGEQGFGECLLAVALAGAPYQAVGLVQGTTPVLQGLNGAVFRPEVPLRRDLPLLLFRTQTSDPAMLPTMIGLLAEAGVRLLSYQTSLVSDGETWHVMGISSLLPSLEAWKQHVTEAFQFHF

Protein sequences, listed by entry. Tags and fused reporters are not part of them.
UniProt P60842: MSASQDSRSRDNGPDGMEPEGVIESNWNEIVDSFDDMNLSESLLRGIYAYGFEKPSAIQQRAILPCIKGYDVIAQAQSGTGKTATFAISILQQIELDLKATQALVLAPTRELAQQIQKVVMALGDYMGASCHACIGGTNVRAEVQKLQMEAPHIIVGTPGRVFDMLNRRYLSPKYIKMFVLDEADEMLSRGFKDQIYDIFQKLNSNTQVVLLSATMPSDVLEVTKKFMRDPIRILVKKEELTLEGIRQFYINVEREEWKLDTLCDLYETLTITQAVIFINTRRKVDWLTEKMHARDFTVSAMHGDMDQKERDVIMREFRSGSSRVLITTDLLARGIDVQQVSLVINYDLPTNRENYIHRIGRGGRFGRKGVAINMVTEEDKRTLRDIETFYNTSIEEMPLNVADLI
UniProt P06730: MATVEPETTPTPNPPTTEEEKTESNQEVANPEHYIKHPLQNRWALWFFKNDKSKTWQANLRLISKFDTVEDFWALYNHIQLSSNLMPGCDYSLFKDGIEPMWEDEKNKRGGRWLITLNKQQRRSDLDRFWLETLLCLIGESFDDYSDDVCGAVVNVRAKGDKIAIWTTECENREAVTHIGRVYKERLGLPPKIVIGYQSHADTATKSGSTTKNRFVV

[2] = target: T2, Phosphoglycerate dehydrogenase (PHGDH), endogenous (human (endogenous in PANC-1 and AsPC-1)) (UniProt O43175); assay: co-IP; cell lysates (20 mM Tris pH 7.4, 0.5% NP40, 150 mM sodium chloride), antibody 1 ug/ml and protein A-Sepharose, 4 °C overnight, western blot; PANC-1-GFP, PANC-1-shPHGDH, AsPC-1-RFP and AsPC-1-PHGDH cells; baits PHGDH, eIF4A1 or eIF4E
T2 sequence: T1 sequence

[3] = target: T3, Phosphoglycerate dehydrogenase (PHGDH), overexpressed in AsPC-1-PHGDH cells (UniProt O43175); assay: as above
T3 sequence: T1 sequence

binding [1] | binding [2] | binding [3] | Substance
binds |  |  | recombinant eIF4A1 protein (from UniProt P60842 1-406)
 | binds | binds | eukaryotic translation initiation factor 4A1 (eIF4A1), endogenous (from UniProt P60842 1-406)
binds |  |  | recombinant eIF4E protein (from UniProt P06730 1-217)

From paper PMC6371491
